The source of these data is PMC6458997, “Deciphering the Molecular Mechanism Underpinning Phage Arbitrium Communication Systems” (Molecular Cell, 2019).

In the data set the target is AimR (SPbeta) (UniProt O31927). The data set is described as follows: EMSA. The note with it: EMSA: 50 mM HEPES pH 7.5, 5 mM MgCl2, 75 mM NaCl, 0.5 mM EDTA, 0.4 uM DNA, 4 uM AimR, 10 min at room temperature, recombinant protein, residues 1-386, protein details: N-terminal 6xHis-TEV, cleaved. Background: Mobility shift assays separate free from complexed probe on a gel.

The mark [1] stands for this setting: SAIRGA peptide (no release), probe letters rebuilt from the primers and the genome.
Setting [2] is: apo, probe letters rebuilt from the primers and the genome.
Setting [3] is: apo, dramatic loss beyond -2 bp.
[4] abbreviates: apo, similar affinity for 23-28 bp.
The mark [5] stands for this setting: boundary mutation, minor effect.
[6] abbreviates: apo, gradual decrease over 28 bp.
Where [7] appears, read: palindrome mutation, affects or abolishes.

Negatives hold for the conditions tested. At least one verdict was read from the data and is not stated in words by the source. The exact form of at least one protein or probe is not confirmed. Weaker means in comparison with the reference protein, sequence or condition of that experiment.

“GAGGGTCAGGGAATTTCGATGAGGCATGGGAAGGAGAAATCCTTGATTTAGAATTTGAGTACACGGTTCTTTGTTTAGAAAAGGGGTTAGAACCACTCAATTATATTATTACCTGGGAAGGATAGGAATTAGCTTTAACAAGTGATTATACCGTTTTAAATGAGTCACAATAGTTCAAAGCAGCGATTCTTTTCTTGAATAAAGAATGTTTAGCTTCAGATATATATCAAAATAAAATGCATATTTTAAATAGAATATGGATAGTGAAAGCTGTACAGAACAAAATTGGAGATGGTCATGATTGATCTTCAAGAAGACAGGTTCATTAAATAATCGCATAGAATTAGGGACAGAGAATTAAAAGAAAAGAAGCAGGTTTGGAACTCTATGGGGAATGACCTCCTTAGTGAAGGAATTGCAAAAGTAATGAAGAACTTAAATAATAGACTTTAAAATTTGAGAAAATAATTAGGTGATAAATTTGGAAAATATAGCTCTTGAATCC (double strand) [yonX-yopA intergenic]”: the binding result is, setting by setting: under setting [1], “binds”; under setting [2], “binds”.

Take “GGAAGAAGTTAATAAATATTACGCAGAAGAACTAGGTCTAAAAGAGACGACCATTTAAATATGAAATCCATTTGACTATTTTGGTTAAATGGATTTTTCTTTTATCTCAAAAAATTGTGAAAAAATTCGCATTTCGACAAAAATAGACAAAATAATCACTTTAAATACATGTTTAAATGTAGTAAGATGGTCATGTAAACCATATGGTTTACTAAGGAGGAGACCAAGACCAAAGTCTTAGTCGTTTCAATGCCTTTCAACCTTGAATTCATAGAGGTCTTCGACATTACAATCTAAAGCAGCAGC (double strand) [yopR-yopS intergenic]”: the binding result under setting [1] is reported as “binds” and the binding result under setting [2] is recorded as “binds”.

Take “GTTAAATCACTGATGTTATTAAAACCTAATATTAGTGATTAAGCC (double strand) [Sp-3 (22 bp spacer)]”: the binding result runs as follows: (GMPRGA peptide) “no binding”; under setting [3], “binds more weakly”.

For the sequence “GTTAAATCACTGATGTTATTAAAACCTAATATTTAGTGATAAGCC (double strand) [Sp-2 (23 bp spacer)]”, the binding result reads like this: (GMPRGA peptide) “no binding”; under setting [4], “binds”.

As to “GTTAAGAATCACTTGTTATTAAAACCTAATAAGTGATTTTAAGCC (double strand) [Sp-7 (18 bp spacer)]”, the binding result is recorded as “no binding” (GMPRGA peptide) and “binds more weakly” under setting [3].

Regarding “GTTAAGAATCACTTGTTATTAAAACCTAATATAGTGATTTAAGCC (double strand) [Sp-6 (19 bp spacer)]”, the binding result (GMPRGA peptide) is “no binding” and the binding result under setting [3] was “binds more weakly”.

Turning to “GTTAAGATATCACTGTTATTAAAACCTAATAAGTGATTTTAAGCC (double strand) [Sp-8 (17 bp spacer)]”, the binding result is, setting by setting: (GMPRGA peptide) “no binding”; under setting [3], “binds more weakly”.

Regarding “GTTAAGATATCACTGTTATTAAAACCTAATAGTGATATTTAAGCC (double strand) [Sp-9 (16 bp spacer)]”, the binding result is listed as “no binding” (GMPRGA peptide) and “binds more weakly” under setting [3].

With “GTTAAGATCACTATGTTATTAAAACCTAATATAGTGATTTAAGCC (double strand) [Sp-5 (20 bp spacer)]”, the binding result is given as “no binding” (GMPRGA peptide) and “binds more weakly” under setting [3].

In the case of “GTTAAGATCACTATGTTATTAAAACCTAATATTAGTGATTAAGCC (double strand) [Sp-4 (21 bp spacer)]”, the binding result (GMPRGA peptide) is listed as “no binding” and the binding result under setting [3] was “binds more weakly”.

For “GTTAAGATGATCACTTATTAAAACCTAAAGTGATATTTAAGCC (double strand) [Sp-12 (13 bp spacer)]”, the binding result by setting is: (GMPRGA peptide) “no binding”; under setting [3], “binds more weakly”.

Regarding “GTTAAGATGATCACTTATTAAAACCTAAGTGATATTTAAGCC (double strand) [Sp-13 (12 bp spacer)]”, the binding result is listed as “no binding” (GMPRGA peptide) and “binds more weakly” under setting [3].

Take “GTTAAGATGATCACTTTATTAAAACCTAAAGTGATATTTAAGCC (double strand) [Sp-11 (14 bp spacer)]”: the binding result is, setting by setting: (GMPRGA peptide) “no binding”; under setting [3], “binds more weakly”.

On to “GTTAAGATGATCACTTTATTAAAACCTAATAGTGATATTTAAGCC (double strand) [Sp-10 (15 bp spacer)]”, for which the binding result runs as follows: (GMPRGA peptide) “no binding”; under setting [3], “binds more weakly”.

On to “GTTAATCACTAAGATGTTATTAAAACCTAATATTTAAAGTGATAGCC (double strand) [Sp+2 (27 bp spacer)]”, for which the binding result (GMPRGA peptide) was “no binding” and the binding result under setting [4] was “binds”.

On to “GTTAATCACTAAGATGTTATTAAAACCTAATATTTAATAGTGATAGCC (double strand) [Sp+3 (28 bp spacer)]”, for which the binding result is reported as “no binding” (GMPRGA peptide) and “binds” under setting [4].

On to “GTTAATCACTAGATGTTATTAAAACCTAATATTTAAAGTGATAGCC (double strand) [Sp+1 (26 bp spacer)]”, for which the binding result reads like this: (GMPRGA peptide) “no binding”; under setting [4], “binds”.

As for “GTTAATCACTAGATGTTATTAAAACCTAATATTTAAGTGATAGCC (double strand) [Mut-1]”, the binding result under setting [5] is reported as “binds”.

For “GTTAATCACTAGATGTTATTAAAACCTAATATTTAGTGATAAGCC (double strand) [Sp-1 (24 bp spacer)]”, the binding result reads like this: (GMPRGA peptide) “no binding”; under setting [4], “binds”.

Take “GTTAATCACTATAAGATGTTATTAAAACCTAATATTTAATAAGTGATAGCC (double strand) [Sp+6 (31 bp spacer)]”: the binding result is “no binding” (GMPRGA peptide) and “binds more weakly” under setting [6].

In the case of “GTTAATCACTATAAGATGTTATTAAAACCTAATATTTAATATAGTGATAGCC (double strand) [Sp+7 (32 bp spacer)]”, the binding result by setting is: (GMPRGA peptide) “no binding”; under setting [6], “binds more weakly”.

Take “GTTAATCACTATATAAGATGTTATTAAAACCTAATATTTAATATAAGTGATAGCC (double strand) [Sp+10 (35 bp spacer)]”: the binding result is on record as “no binding” (GMPRGA peptide) and “binds more weakly” under setting [6].

For “GTTAATCACTTAAGATGTTATTAAAACCTAATATTTAATAAGTGATAGCC (double strand) [Sp+5 (30 bp spacer)]”, the binding result by setting is: (GMPRGA peptide) “no binding”; under setting [6], “binds more weakly”.

Turning to “GTTAATCACTTAAGATGTTATTAAAACCTAATATTTAATAGTGATAGCC (double strand) [Sp+4 (29 bp spacer)]”, the binding result (GMPRGA peptide) is recorded as “no binding” and the binding result under setting [6] is given as “binds more weakly”.

Turning to “GTTAATCACTTATAAGATGTTATTAAAACCTAATATTTAATATAAGTGATAGCC (double strand) [Sp+9 (34 bp spacer)]”, the binding result reads like this: (GMPRGA peptide) “no binding”; under setting [6], “binds more weakly”.

As to “GTTAATCACTTATAAGATGTTATTAAAACCTAATATTTAATATAGTGATAGCC (double strand) [Sp+8 (33 bp spacer)]”, the binding result (GMPRGA peptide) is given as “no binding” and the binding result under setting [6] was “binds more weakly”.

Consider “GTTAGTCACTAGATGTTATTAAAACCTAATATTTAAGTGACAGCC (double strand) [Mut6]”, for which the binding result under setting [7] is “binds more weakly”.

For “GTTGACCACTAGATGTTATTAAAACCTAATATTTAAGTGGTGGCC (double strand) [Mut5]”, the binding result under setting [7] is “binds more weakly”.

As for “GTTGATCACCAGATGTTATTAAAACCTAATATTTAGGTGATGGCC (double strand) [Mut1]”, the binding result under setting [7] is listed as “binds more weakly”.

In the case of “GTTGATCACTGGATGTTATTAAAACCTAATATTTCAGTGATGGCC (double strand) [Mut+1]”, the binding result under setting [5] is on record as “binds”.

For the sequence “GTTGATCATTAGATGTTATTAAAACCTAATATTTAAATGATGGCC (double strand) [Mut2]”, for the setting “box position 5, among strongest effects”, the binding result is reported as “binds more weakly”.

For the sequence “GTTGATCGCTAGATGTTATTAAAACCTAATATTTAAGCGATGGCC (double strand) [Mut3]”, the binding result (box position 4, among strongest effects) was “binds more weakly”.
